This is one part of the list.
B1: il10ra_site1_sap_14_mot_HHH_b1_03314_af2_000000278_0001_42_55_H_._HHH_b1_00918_0001_0000700020_0000001_0_0001 (protein)
chain: SSSSDEEEEELERLLEQLREAFKDGDTQLVYELLERVIKLASELGDQEVLREVMELLRRLFSSSS
B2: il10ra_site1_sap_28_mot_HHH_b1_07932_000000020_0001_21_38_H_._HHH_b1_03595_0001_0000800045_0000001_0_0001 (protein)
chain: SSSNRAARFLAEQALKAVEILLKQGDHELAEHAFENLERLLEQVGDPKLEEILEEIEKLLRSSSS
B3: il10ra_site1_normal_mot_HHH_b2_07579_000000275_0001_1_19_H_._HHH_b2_05702_af2_0001_0000700053_0000002_0 (protein)
chain: SSSSSDELEEIIELIRKAAELAQKGDPRAEEVAEEALELAEELGNEVAAWAIRHLLRDLTSSSSS
B4: il10ra_site1_sap_27_mot_HHH_b2_07144_000000289_0001_1_18_H_._HHH_b2_07112_0001_0000200020_0000001_0_0001 (protein)
chain: SSSSDREEVEELLREAEELLEEGNEEEALRVVLRAVRLAYQTGDPELLRALWRLIEERKRKSSSS
B5: il10ra_site1_normal_mot_HHH_b1_05021_af2_000000167_0001_42_56_H_._HHH_b1_05676_af2_0001_0000100002_0000001_0 (protein)
chain: SSSSDELEEVFRLLERASQLDQEGDHEEARRLLEEARELAEELGNELLRWQIEWLLERLDSSSSS
B6: il10ra_site1_sap_16_mot_HHH_b2_07144_000000289_0001_1_18_H_._HHH_b1_08718_0001_0000100012_0000001_0_0001 (protein)
chain: SSSSDAEFLVRQALKAVRILIERGDPEEAQRALEIAKRLAEQANNEELEELIEEVERQLHSSSSS
B7: il10ra_site1_normal_mot_HHH_b1_03859_af2_000000004_0001_44_57_H_._HHH_b2_03997_0001_0000200016_0000001_0_af2pred_0001 (protein)
chain: SSSSSSDLEKKLELSIRFAKSLSDPEAARLLLRQAADLARRANNEELLEEIERLLEELGSSSSSS
B8: il10ra_site1_sap_17_mot_HHH_b1_06789_af2_000000041_0001_1_20_H_._HHH_b2_03987_af2_0001_0000400007_0000001_0_0001 (protein)
chain: SSSSSDDEEYLEMALRFLEWALREGNEESFRSMARAIKQVAERLGDPEVQKRVEELEEEISSSSS
B9: il10ra_site1_sap_22_mot_HHH_b2_02262_af2_000000007_0001_40_53_H_._HHH_b2_07530_af2_0001_0000100002_0000001_0_0001 (protein)
chain: SSSSDEWFEEVKEILQKVVELEREGNPEEAQEILEEAIEKFEEENNHIAVQQLRFLLKLISSSSS
B10: il10ra_site1_normal_mot_HHH_b2_07521_000000141_0001_20_37_H_._HHH_b1_02532_0001_0000200012_0000001_0_af2pred_dldesign_0_af2pred (protein)
chain: SSSSSNEVEAVRLQLRYARFLREAGAPEEARYVLENALKLAKEVKDPELVAEIEALLAELSSSSS
B11: il10ra_site1_normal_mot_HHH_b2_02337_000000026_0001_38_52_H_._HHH_b1_06806_0001_0000400015_0000001_1 (protein)
chain: SSSSSSSDEEEVRELLEEAEEIENPEELARVLQEATHFALRAQNQELLREVWEVVKRLSSSSSSS
B12: il10ra_site1_sap_22_mot_HHH_b2_07784_af2_000000103_0001_19_36_H_._HHH_b1_05257_af2_0001_0000400005_0000001_0_0001_af2pred_0001 (protein)
chain: SRLEAIARAIRFLAERAGVPHVEVTVENGELHVTVEGNDQAARELKLAARWLARAANVPLEVESE
B13: il10ra_site1_sap_13_mot_HHH_b2_04592_000000276_0001_41_54_H_._2e374b53e75dc1c2421ca5e7055e643f_0001_0001_0000200012_0000001_0_0001 (protein)
chain: SSSSSDDEEYLKLALRFLEWALRVGDEESFKTMARAIKSVAEKLGDPEVQERVEELHEEISSSSS
B14: il10ra_site1_sap_19_mot_HHH_b1_02665_000000293_0001_1_18_H_._HHH_b1_02803_0001_0000500042_0000001_0_0001 (protein)
chain: SSSSSAEEAQEVQRILEEAAELAKRDPEEARRLVEELLEELEELGDRLMIIQIRFLLKDLRSSSS
B15: il10ra_site1_normal_mot_HHH_b1_06789_af2_000000041_0001_1_20_H_._HHH_b2_06015_af2_0001_0000300012_0000001_0_af2pred_dldesign_0_af2pred (protein)
chain: SSSSAGRELTEQAIRAAEILLEAGDLEEAQKALDIAEKLAKQLGDEELLKEIEELKKKLESSSSS
B16: il10ra_site1_sap_18_mot_HHH_b2_07086_af2_000000231_0001_20_36_H_._HHH_b1_05227_af2_0001_0000200009_0000001_0_0001 (protein)
chain: SSSSSEEDQELLELVQEAFHLLLRGDEEEARRLLEEALEIAREAGNERVLRMIESMLKTVSSSSS
B17: il10ra_site1_sap_13_mot_HHH_b1_00267_af2_000000050_0001_38_52_H_._HHH_b1_02387_af2_0001_0000900039_0000001_0_0001 (protein)
chain: SSSSSSDIAELVAEAVRLAIQRNDEEVFRELYELFREYIEKGDPRIEEEVEELLEELRSSSSSSS
B18: il10ra_site1_sap_16_mot_HHH_b2_05343_000000235_0001_19_35_H_._HHH_b2_03259_af2_0001_0000700044_0000001_0_0001 (protein)
chain: SSSSDATEWLVRQALRAVELLAKQGDPEEAEKALELARHLAEAGNDPEAQRLVEELEEELSSSSS
B19: il10ra_site1_normal_mot_HHH_b2_06926_000000122_0001_1_20_H_._HHH_b2_01013_af2_0001_0000100006_0000002_0 (protein)
chain: SSSSSTLEEQLEILKRYLELLLENNDEEVLKALLRQAEEVARRLGDEELEELVEEIRRELSSSSS
B20: il10ra_site1_normal_mot_HHH_b1_06804_000000054_0001_40_54_H_._HHH_b1_06242_af2_0002_0000600032_0000001_0 (protein)
chain: SSSSDEEEELEELLEEIKKLLEEGDPEEALRLIQEALQLAFQLRDEEALQILYELARLASSSSSS
B21: il10ra_site1_sap_19_mot_HHH_b2_07521_000000141_0001_20_37_H_._HHH_b1_07537_af2_0001_0000400008_0000001_0_0001 (protein)
chain: SSSSSDEERLEELLEELKELLEEGDRERFLRVALEVLRLAFQSSDEEALQAVWRLVKKWGSSSSS
B22: il10ra_site1_normal_mot_HHH_b2_03220_af2_000000223_0001_23_40_H_._HHH_b2_07778_af2_0001_0000300008_0000001_0_af2pred_0001 (protein)
chain: SSSSSSSEREEALRLIREALHIDDKEEAQELLEEARELAEEANNPVIRRSIEFLLSQLSSSSSSS
B23: il10ra_site1_normal_mot_HHH_b2_02053_af2_000000006_0001_3_19_H_._HHH_b1_04837_af2_0001_0000900044_0000001_0_af2pred_0001 (protein)
chain: SSSSSELSERAIELIRRILELRHQGDPEEARELLEELQEVVEESGDPLFHFLLEILEKELSSSSS
B24: il10ra_site1_sap_20_mot_HHH_b2_02337_000000026_0001_38_52_H_._HHH_b2_03345_0001_0000100009_0000001_1_0001 (protein)
chain: SSSTEEEIKELLEELKELIERGDEEEVAQLAAEIMRAIYELGDEELAEELLRLLAEFLERQSSSS
B25: il10ra_site1_normal_mot_HHH_b1_08411_af2_000000053_0001_1_20_H_._HHH_b2_02982_0001_0000300041_0000002_0 (protein)
chain: SSSSQEAFELTREAIEEAKELFEEGNREEAEELLKEVLEEVRELGNFAAEFSLEHLLRVLSSSSS
B26: il10ra_site1_sap_16_mot_HHH_b1_05021_af2_000000167_0001_42_56_H_._HHH_b2_06441_af2_0001_0000200015_0000002_0_0001 (protein)
chain: SSSSSSDVEELLEEARELAEEGDPRAIEVLQRALQHAYRLGDEELLREIWELVRRIANSSSSSSS
B27: il10ra_site1_normal_mot_HHH_b2_00943_af2_000000149_0001_1_17_H_._HHH_b1_07323_0001_0000500032_0000001_0_af2pred_0001 (protein)
chain: SSSDVEEVLELAEEALRLAEERNDEAAQFTLRVTLKTLELTGDPHAERILRRLAETLLKELRSSS
B28: il10ra_site1_normal_mot_HHH_b1_05879_000000258_0001_1_19_H_._HHH_b1_03479_0001_0000400033_0000001_0 (protein)
chain: SSSSDTLEWSVRFALREAERLYELGDPERAEELLRRLVELLREAGNEELVELVERVLEELNSSSS
B29: il10ra_site1_sap_24_mot_HHH_b1_04275_000000001_0001_22_39_H_._HHH_b1_02595_af2_0001_0000100006_0000001_0_0001 (protein)
chain: SSSSDNEEVFELLRRALELLAEGNPEEAEKLLEEARELAEKAGSRLFEINIEFILEDIEESSSSS
B30: il10ra_site1_sap_25_mot_HHH_b1_06912_af2_000000235_0001_1_15_H_._HHH_b1_08405_0001_0000400043_0000001_0_0001 (protein)
chain: SSSSTLEELVEAAIRIAHQALEAGNPRLARHLLEALLEALERLGNPELVEEVEKLLEEVRNSSSS
B31: il10ra_site1_sap_18_mot_HHH_b1_02766_af2_000000078_0001_42_56_H_._d50532fa1587236c3ce0ee4f17a021f6_0001_1_0001_0000300015_0000001_0_0001 (protein)
chain: SSSSSDETQELYELSKRIVELLHEGNPEEAEELLEQLRRLAEELNNWTIRAIVEFLEKQLSSSSS
B32: il10ra_site1_normal_mot_HHH_b1_07380_000000129_0001_1_20_H_._HHH_b1_04763_0001_0000400043_0000001_0 (protein)
chain: SSSSTEEHHELYRISREIAELEAEGNPEEARRLLEQLEELAEELNDFIVRFVVRLLEESLSSSSS
B33: il10ra_site1_sap_26_mot_HHH_b2_07006_000000108_0001_1_19_H_._HHH_b2_00401_0001_0000100003_0000001_0_0001 (protein)
chain: SSSSSDEELKEEVEELEEQARHIEDPHEFARILARAVQLAYRLGDAELLHEIWELIHKARSSSSS
B34: il10ra_site1_sap_20_mot_HHH_b2_05343_000000235_0001_19_35_H_._HHH_b1_06694_af2_0001_0000100002_0000001_0_0001_af2pred_0001 (protein)
chain: SKLEEVEELLEELAKTDIVAVSLLHLLRADKKAGVPPEEILERLQEIAKLADTPFARELLKLLEK
B35: il10ra_site1_sap_25_mot_HHH_b1_07590_af2_000000040_0001_1_19_H_._HHH_b1_00813_0001_0000100006_0000002_0_0001 (protein)
chain: SSSSDVEEEVERLLEEAEELRERGNPEEARELMLEALRLAIQAQNKELLRLVWEVVRRLASSSSS
B36: il10ra_site1_normal_mot_HHH_b2_03220_af2_000000223_0001_23_40_H_._HHH_b1_01139_af2_0001_0000100001_0000001_0_af2pred_0001 (protein)
chain: SSSSTEESERVYEILREALEIEDKEEAEEVVEEAVELAEELNSPVLAIAARFLLRALREGSSSSS
B37: il10ra_site1_normal_mot_a6c796b944619e241e020fd597ddb6da_0001_af2_000000092_0001_15_31_H_._HHH_b1_07083_0001_0000200016_0000001_0 (protein)
chain: SSSSSSDEEQRARALVRFAKLASNPEAAKITLEVALELARKLNDEELVEEIEELLEEYSSSSSSS

target: il10ra, Q13651; experiment: yeast display titration

Apparent Kd, inactive:
B1 no binding seen
B2 no binding seen
B3 no binding seen
B4 no binding seen
B5 no binding seen
B6 no binding seen
B7 no binding seen
B8 no binding seen
B9 no binding seen
B10 no binding seen
B11 no binding seen
B12 no binding seen
B13 no binding seen
B14 no binding seen
B15 no binding seen
B16 no binding seen
B17 no binding seen
B18 no binding seen
B19 no binding seen
B20 no binding seen
B21 no binding seen
B22 no binding seen
B23 no binding seen
B24 no binding seen
B25 no binding seen
B26 no binding seen
B27 no binding seen
B28 no binding seen
B29 no binding seen
B30 no binding seen
B31 no binding seen
B32 no binding seen
B33 no binding seen
B34 no binding seen
B35 no binding seen
B36 no binding seen
B37 no binding seen

At a glance, some entries already given.
Apparent Kd, inactive:
B23 no binding seen
B24 no binding seen
